Results on 1 substance are retold here after article doi:10.1101/358176.

The experiment addresses T1, GFP-tagged dl (dorsal) (Drosophila melanogaster) (UniProt P15330).
T1 sequence: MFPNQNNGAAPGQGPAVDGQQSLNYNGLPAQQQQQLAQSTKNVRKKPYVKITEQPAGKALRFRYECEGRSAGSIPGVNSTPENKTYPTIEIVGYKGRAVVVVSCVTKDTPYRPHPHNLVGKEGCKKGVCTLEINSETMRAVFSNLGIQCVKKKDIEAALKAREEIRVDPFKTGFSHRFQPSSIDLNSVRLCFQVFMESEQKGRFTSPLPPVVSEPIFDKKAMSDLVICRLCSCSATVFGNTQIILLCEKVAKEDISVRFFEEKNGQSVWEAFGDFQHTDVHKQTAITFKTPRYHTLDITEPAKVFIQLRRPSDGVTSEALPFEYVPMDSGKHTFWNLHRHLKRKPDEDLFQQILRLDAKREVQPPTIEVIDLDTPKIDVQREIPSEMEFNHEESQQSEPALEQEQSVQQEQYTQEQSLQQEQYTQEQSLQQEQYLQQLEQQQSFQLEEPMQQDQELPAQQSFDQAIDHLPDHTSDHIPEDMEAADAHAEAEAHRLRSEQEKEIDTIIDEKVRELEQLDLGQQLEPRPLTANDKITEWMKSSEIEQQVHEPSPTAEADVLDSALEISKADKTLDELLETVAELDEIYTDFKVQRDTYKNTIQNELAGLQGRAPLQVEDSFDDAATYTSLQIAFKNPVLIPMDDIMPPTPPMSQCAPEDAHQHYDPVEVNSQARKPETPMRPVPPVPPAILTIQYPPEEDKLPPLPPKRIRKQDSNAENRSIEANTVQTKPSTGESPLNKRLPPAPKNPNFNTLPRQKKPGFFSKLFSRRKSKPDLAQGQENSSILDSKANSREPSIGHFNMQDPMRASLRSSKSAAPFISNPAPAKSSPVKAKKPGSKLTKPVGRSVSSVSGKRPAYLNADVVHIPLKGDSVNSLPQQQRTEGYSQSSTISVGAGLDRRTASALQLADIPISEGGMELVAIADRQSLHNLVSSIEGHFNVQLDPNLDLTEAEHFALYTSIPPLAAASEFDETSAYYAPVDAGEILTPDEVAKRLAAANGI
Put plainly: co-IP.

Results are given in words; binding and its absence hold for the method and conditions named. Binding seen in cells or lysates may run through a third protein. Where a sequence is shown, tags or fusion partners need not be part of it.

As to V5-tagged gp83 of Kallithea virus, the binding entry was “no binding”.
